PubChem BioAssay AID504764 | Drosophila RNAi Screening Center | 2011

- Test: 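Knock-downs that raise or lower a Notch target reporter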 (primary screen)
- Cell system: Drosophila Kc167 cells
- Reagent: long dsRNA against Drosophila genes
- Time to read-out: about 5 days (4 days dsRNA, then 24 h after transfection)
- Challenge: transfection of constitutively active membrane-tethered Notch lacking the extracellular domain, read 24 h later
- Read-out: 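Firefly luciferase from an E(spl)m3 reporter with active Notch, plus control-promoter and uninduced reporter wells for normalisation; unnormalised counts, duplicate wells a and b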
- Scale: induced reporter light, run 1, well a and induced reporter light, run 1, well b: higher = more light from the Notch target reporter with active Notch; control promoter light, run 1, well a and control promoter light, run 1, well b: higher = more light from the viral control promoter (cell number, transfection, viability); uninduced reporter light, run 1, well a: higher = more light from the Notch target reporter without active Notch
- Active means: 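Hit if the duplicate-averaged log2 ratio of induced to control-promoter light gives a plate-wise z beyond ±2, or induced to uninduced beyond ±1.8; weak-control or discordant-duplicate wells dropped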
- Calls: active = modifier hit (raised or lowered Notch signal); inactive = not a hit
The screen tested about 22,000 reagents; shown is an unselected part of those with a known target gene and a result. Of all reagents, 403 (1.9%) are marked active. 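Unnormalised raw counts per well; ratio z-scores behind the hit calls and whether each hit raises or lowers signal are not deposited.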 A number with no mark means an inactive call. Names joined by + are all predicted targets of the reagent. Reagent sequences are not shown. The record does not give: the amount of reagent.

gene | DRSC id | induced reporter light, run 1, well a | induced reporter light, run 1, well b | control promoter light, run 1, well a | control promoter light, run 1, well b | uninduced reporter light, run 1, well a
CG18210 (retired record) | DRSC19089 | 1.19e5 | 1.60e5 | 1.43e5 | 1.24e5 | 9220
CG18210 (retired record) | DRSC19795 | 1.62e5 | 1.38e5 | 1.11e5 | 1.33e5 | 9015
CG33125 | DRSC00145 | 92835 | 79900 | 1.26e5 | 1.36e5 | 5195
Ebp | DRSC04048 | 2.51e5 | 1.99e5 | 1.90e5 | 1.63e5 | 16750
Polr3I | DRSC19922 | 84765 | 92310 | 72445 | 39865 | 7650
PIG-G | DRSC06823 | 1.76e5 (active) | 2.04e5 | 1.74e5 | 1.73e5 | 9670
CG6290 | DRSC19979 | 1.34e5 | 1.01e5 | 1.04e5 | 61530 | 8985

Entries listed above called active:
gene | DRSC id | induced reporter light, run 1, well a | induced reporter light, run 1, well b | control promoter light, run 1, well a | control promoter light, run 1, well b | uninduced reporter light, run 1, well a
PIG-G | DRSC06823 | 1.76e5 (active) | 2.04e5 | 1.74e5 | 1.73e5 | 9670

The list goes on:
gene | DRSC id | induced reporter light, run 1, well a | induced reporter light, run 1, well b | control promoter light, run 1, well a | control promoter light, run 1, well b | uninduced reporter light, run 1, well a
Psn | DRSC11743 | 1.30e5 | 96435 | 90320 | 72980 | 7138
CG14961 | DRSC08420 | 1.25e5 | 1.19e5 | 1.49e5 | 2.10e5 | 12535
vlc | DRSC04922 | 1.46e5 | 1.35e5 | 1.54e5 | 1.54e5 | 10320
CG17768 + LSm-4 | DRSC02845 | 98575 | 1.11e5 | 51870 | 67505 | 9310
Gmap | DRSC19988 | 77065 | 87065 | 96400 | 1.06e5 | 4295
Gmap | DRSC20057 | 1.16e5 | 87040 | 98450 | 1.37e5 | 15895
CG2818 | DRSC00540 | 85310 (active) | 1.13e5 | 98845 | 98110 | 6610
Polr1E | DRSC14506 | 2.17e5 | 1.88e5 | 2.07e5 | 1.84e5 | 10532
Polr1E | DRSC15358 | 2.73e5 | 2.48e5 | 3.28e5 | 3.53e5 | 20530
Cyp309a1 | DRSC00747 | 1.08e5 | 92180 | 94115 | 75885 | 8865
CG4766 | DRSC17736 | 1.59e5 | 1.60e5 | 2.79e5 | 2.61e5 | 12615
CG34214 | DRSC04490 | 1.84e5 | 1.98e5 | 1.96e5 | 2.05e5 | 15025
CG6961 + CG18259 | DRSC19799 | 54335 | 75300 | 54855 | 80990 | 8520
CG6961 + CG18259 | DRSC20019 | 1.18e5 | 1.07e5 | 87685 | 45805 | 9185
